Assay results taken from PMC7862700.
Only a part is listed here, and it is no random draw. For some assays here: At the low end of the ranking the order means little. Some of the results follow. For some assays here: Construct or isoform of the protein are uncertain.

By UniProt entry, the sequences of proteins in these tests, tags left out. Where a name states a change or a piece, a line headed by the entry shows the natural chain unless it says otherwise.
UniProt P32519: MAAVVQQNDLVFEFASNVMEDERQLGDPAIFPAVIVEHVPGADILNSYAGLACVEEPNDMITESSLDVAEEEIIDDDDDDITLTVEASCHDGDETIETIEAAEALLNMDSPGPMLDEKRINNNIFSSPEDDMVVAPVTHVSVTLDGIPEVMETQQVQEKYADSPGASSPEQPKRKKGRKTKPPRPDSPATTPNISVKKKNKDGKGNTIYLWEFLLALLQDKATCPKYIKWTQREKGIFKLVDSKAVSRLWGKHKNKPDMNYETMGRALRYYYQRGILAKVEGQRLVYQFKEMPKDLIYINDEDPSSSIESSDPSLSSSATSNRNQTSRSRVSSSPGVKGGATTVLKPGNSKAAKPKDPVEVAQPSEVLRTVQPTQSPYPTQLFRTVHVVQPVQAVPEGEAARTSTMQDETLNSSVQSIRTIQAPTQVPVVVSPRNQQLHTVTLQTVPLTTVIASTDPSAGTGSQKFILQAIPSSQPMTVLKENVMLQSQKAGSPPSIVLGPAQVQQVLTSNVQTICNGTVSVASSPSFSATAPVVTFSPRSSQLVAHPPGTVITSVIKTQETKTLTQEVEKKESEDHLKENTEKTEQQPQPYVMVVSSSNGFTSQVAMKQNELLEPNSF

Tests used:
ELF1 = ELF1 (UniProt P32519); assay: DAPPL (digital affinity profiling via proximity ligation, sequencing); settings: 10 mM Tris-HCl pH 7.5, 50 mM NaCl, 1 mM DTT, 4% glycerol, room temperature, 30 min; GST-TFs on glutathione beads, 16-mer random dsDNA library, 0.1% …; high values mean tight binding; double strand, one strand shown; scale: fold enrichment (6-mer frequency, TF over GST control)
ETV4 = target: T1, ETV4 (UniProt P43268); assay: as above; settings: 10 mM Tris-HCl pH 7.5, 50 mM NaCl, 1 mM DTT, 4% glycerol, room temperature, 30 min; GST-TFs on glutathione beads, 16-mer random dsDNA library, 0.1% …; high values mean tight binding; double strand, one strand shown; scale: fold enrichment (6-mer frequency, TF over GST control)
T1 sequence: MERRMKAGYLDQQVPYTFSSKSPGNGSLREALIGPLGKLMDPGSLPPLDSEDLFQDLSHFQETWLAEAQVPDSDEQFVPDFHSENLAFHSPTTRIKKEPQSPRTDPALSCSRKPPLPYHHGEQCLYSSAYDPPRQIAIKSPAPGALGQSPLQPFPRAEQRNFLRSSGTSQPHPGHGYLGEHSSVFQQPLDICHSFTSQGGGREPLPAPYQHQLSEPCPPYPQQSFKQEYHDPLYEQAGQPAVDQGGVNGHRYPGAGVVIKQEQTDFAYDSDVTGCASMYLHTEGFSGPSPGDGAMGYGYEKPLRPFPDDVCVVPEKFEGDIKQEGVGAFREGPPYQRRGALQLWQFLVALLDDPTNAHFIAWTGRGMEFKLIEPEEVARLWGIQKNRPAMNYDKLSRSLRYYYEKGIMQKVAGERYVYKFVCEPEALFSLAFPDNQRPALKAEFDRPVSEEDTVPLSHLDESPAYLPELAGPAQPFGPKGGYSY

Q: Which binding signal (ELF1) does the source give for CCACCT here?
A: The binding signal was 1.15.

Q: And the binding signal (ETV4)?
A: The binding signal was 1.17.

Q: What does the source list for CTAACA?
A: binding signal (ELF1): 1.25; binding signal (ETV4): 1.19

Q: How did the binding signal (ELF1) turn out when TTTATC was run?
A: Its binding signal is 1.21.

Q: And the binding signal (ETV4)?
A: The binding signal was 1.14.

Q: Which binding signal (ELF1) does the source give for GAAAAA here?
A: Its binding signal is 1.1.

Q: And the binding signal (ETV4)?
A: The binding signal was 1.06.

Q: For CCGGTT, which binding signal (ELF1) is on record?
A: Its binding signal is 1.96.

Q: What about the binding signal (ETV4) of the same sequence?
A: The binding signal was 2.24.

Q: Which binding signal (ELF1) does the source give for TCAAAT here?
A: Its binding signal is 1.15.

Q: And the binding signal (ETV4)?
A: The binding signal was 1.09.

Q: What does the source list for TGCCTC?
A: binding signal (ELF1): 1.31; binding signal (ETV4): 1.4

Q: CAAATG was tested. Which binding signal (ELF1) did it give?
A: Its binding signal is 1.22.

Q: And the binding signal (ETV4)?
A: Its binding signal is 1.14.

Q: Which binding signal (ELF1) does the source give for CCCTCT here?
A: The binding signal was 1.28.

Q: And the binding signal (ETV4)?
A: The binding signal was 1.34.

Q: CTACCG was tested. Which binding signal (ELF1) did it give?
A: Its binding signal is 1.64.

Q: What about the binding signal (ETV4) of the same sequence?
A: Its binding signal is 1.5.

Q: AGATGC was tested. Which binding signal (ELF1) did it give?
A: Its binding signal is 1.04.

Q: And the binding signal (ETV4)?
A: Its binding signal is 0.947.

Q: Which binding signal (ELF1) does the source give for CCATCC here?
A: The binding signal was 1.27.

Q: And the binding signal (ETV4)?
A: Its binding signal is 1.25.

Q: Which results are given for GTATAA?
A: binding signal (ELF1): 1.06; binding signal (ETV4): 1.06

Q: Which binding signal (ELF1) does the source give for ATCTGC here?
A: The binding signal was 1.45.

Q: And the binding signal (ETV4)?
A: Its binding signal is 1.28.

Q: Which results are given for CGGGCT?
A: binding signal (ELF1): 1.04; binding signal (ETV4): 1.12

Q: Which binding signal (ELF1) does the source give for TCACTA here?
A: Its binding signal is 1.21.

Q: What about the binding signal (ETV4) of the same sequence?
A: The binding signal was 1.18.

Q: Which results are given for CCTGGC?
A: binding signal (ELF1): 1.07; binding signal (ETV4): 1.04

Q: How did the binding signal (ELF1) turn out when ACAGCT was run?
A: Its binding signal is 1.16.

Q: What about the binding signal (ETV4) of the same sequence?
A: Its binding signal is 1.18.

Q: AAACAA was tested. Which binding signal (ELF1) did it give?
A: Its binding signal is 1.28.

Q: What about the binding signal (ETV4) of the same sequence?
A: The binding signal was 1.21.

Q: With TCAAAA as the sequence, how does the binding signal (ELF1) read?
A: The binding signal was 1.19.

Q: And the binding signal (ETV4)?
A: The binding signal was 1.09.

Q: For ACGATA, which binding signal (ELF1) is on record?
A: Its binding signal is 1.19.

Q: What about the binding signal (ETV4) of the same sequence?
A: The binding signal was 1.15.

Q: Which results are given for TACCTT?
A: binding signal (ELF1): 1.3; binding signal (ETV4): 1.39

Q: Which binding signal (ELF1) does the source give for AGTACT here?
A: Its binding signal is 1.22.

Q: And the binding signal (ETV4)?
A: Its binding signal is 1.38.

Q: Which binding signal (ELF1) does the source give for CGCAAA here?
A: Its binding signal is 1.

Q: What about the binding signal (ETV4) of the same sequence?
A: Its binding signal is 1.

Q: With TCAATG as the sequence, how does the binding signal (ELF1) read?
A: The binding signal was 1.04.

Q: And the binding signal (ETV4)?
A: Its binding signal is 1.09.

Q: How did the binding signal (ELF1) turn out when TTACGT was run?
A: The binding signal was 1.07.

Q: What about the binding signal (ETV4) of the same sequence?
A: Its binding signal is 1.16.

Q: GTACCC was tested. Which binding signal (ELF1) did it give?
A: Its binding signal is 1.12.

Q: And the binding signal (ETV4)?
A: The binding signal was 1.11.

Q: TGTCCC was tested. Which binding signal (ELF1) did it give?
A: Its binding signal is 1.28.

Q: And the binding signal (ETV4)?
A: The binding signal was 1.46.

Q: What does the source list for GAAACG?
A: binding signal (ELF1): 1.18; binding signal (ETV4): 1.22

Q: AAGGTT was tested. Which binding signal (ELF1) did it give?
A: The binding signal was 1.05.

Q: And the binding signal (ETV4)?
A: The binding signal was 1.01.

Q: Which results are given for TTTCTG?
A: binding signal (ELF1): 1.34; binding signal (ETV4): 1.31

Q: Which results are given for CAACCC?
A: binding signal (ELF1): 1.24; binding signal (ETV4): 1.17

Q: Which results are given for GGCTAC?
A: binding signal (ELF1): 1.26; binding signal (ETV4): 1.19

Q: With CCTACC as the sequence, how does the binding signal (ELF1) read?
A: Its binding signal is 1.28.

Q: What about the binding signal (ETV4) of the same sequence?
A: The binding signal was 1.25.

Q: What does the source list for TTGCCA?
A: binding signal (ELF1): 1.03; binding signal (ETV4): 1.04

Q: For CAACTA, which binding signal (ELF1) is on record?
A: The binding signal was 1.38.

Q: And the binding signal (ETV4)?
A: The binding signal was 1.33.

Q: CAGCCC was tested. Which binding signal (ELF1) did it give?
A: The binding signal was 1.09.

Q: What about the binding signal (ETV4) of the same sequence?
A: Its binding signal is 1.14.

Q: How did the binding signal (ELF1) turn out when TTCGGC was run?
A: Its binding signal is 1.

Q: And the binding signal (ETV4)?
A: Its binding signal is 0.997.

Q: For ATGTTA, which binding signal (ELF1) is on record?
A: The binding signal was 1.22.

Q: And the binding signal (ETV4)?
A: The binding signal was 1.27.

Q: Which results are given for GTACAA?
A: binding signal (ELF1): 1.11; binding signal (ETV4): 1.06

Q: GCTAAA was tested. Which binding signal (ELF1) did it give?
A: Its binding signal is 1.08.

Q: And the binding signal (ETV4)?
A: Its binding signal is 1.09.

Q: With TGTTCG as the sequence, how does the binding signal (ELF1) read?
A: The binding signal was 0.986.

Q: And the binding signal (ETV4)?
A: Its binding signal is 1.1.

Q: Which binding signal (ELF1) does the source give for AAACCT here?
A: The binding signal was 1.19.

Q: And the binding signal (ETV4)?
A: Its binding signal is 1.13.

Q: Which results are given for CATGCA?
A: binding signal (ELF1): 1.1; binding signal (ETV4): 1.06

Q: What does the source list for TTGAAG?
A: binding signal (ELF1): 0.987; binding signal (ETV4): 0.965

Q: For GCTCGA, which binding signal (ELF1) is on record?
A: Its binding signal is 1.21.

Q: What about the binding signal (ETV4) of the same sequence?
A: The binding signal was 1.23.

Q: With CCGCTT as the sequence, how does the binding signal (ELF1) read?
A: Its binding signal is 1.92.

Q: And the binding signal (ETV4)?
A: Its binding signal is 1.94.

Q: Which binding signal (ELF1) does the source give for GTGCAT here?
A: The binding signal was 1.01.

Q: What about the binding signal (ETV4) of the same sequence?
A: The binding signal was 1.1.

Q: Which results are given for GATATT?
A: binding signal (ELF1): 1.13; binding signal (ETV4): 1.09

Q: Which results are given for GCGCCT?
A: binding signal (ELF1): 1.1; binding signal (ETV4): 1.17

Q: Which binding signal (ELF1) does the source give for ATTCAT here?
A: Its binding signal is 1.16.

Q: And the binding signal (ETV4)?
A: Its binding signal is 1.12.

Q: Which results are given for TTGACT?
A: binding signal (ELF1): 1.15; binding signal (ETV4): 1.2

Q: Which results are given for TGATAC?
A: binding signal (ELF1): 1.14; binding signal (ETV4): 1.07

Q: Which results are given for CCTTAT?
A: binding signal (ELF1): 1.39; binding signal (ETV4): 1.43

Q: ACGCAC was tested. Which binding signal (ELF1) did it give?
A: Its binding signal is 1.06.

Q: And the binding signal (ETV4)?
A: The binding signal was 1.04.

Q: For CCGGAT, which binding signal (ELF1) is on record?
A: Its binding signal is 2.97.

Q: What about the binding signal (ETV4) of the same sequence?
A: The binding signal was 3.45.

Q: With TAAGTA as the sequence, how does the binding signal (ELF1) read?
A: Its binding signal is 1.24.

Q: What about the binding signal (ETV4) of the same sequence?
A: The binding signal was 1.2.

Q: What does the source list for TGGTGG?
A: binding signal (ELF1): 1.03; binding signal (ETV4): 1.07
